The values that follow come from PMC3478187 (EJNMMI Research, 2012).

The series is described as follows: general procedure: Fmoc solid-phase peptide synthesis; Rink amide resin. To be noted: conjugation step.

On to DOTA-PEG5k-Lys-BN, for which the conjugation yield entry is on record as “above 96%”.
